Test results reported in publication PMC6565675, “Cryo-electron microscopy structure of an archaeal ribonuclease P holoenzyme” (Nature Communications, 2019).
No constants are given. Whether binding was seen depends on the method and setting. Some entries that bind do so weakly or less than the wild type.

Target: T1, Methanocaldococcus jannaschii RNase P protein subunit Rpp30 (Methanocaldococcus jannaschii) (UniProt Q58539)
T1 sequence: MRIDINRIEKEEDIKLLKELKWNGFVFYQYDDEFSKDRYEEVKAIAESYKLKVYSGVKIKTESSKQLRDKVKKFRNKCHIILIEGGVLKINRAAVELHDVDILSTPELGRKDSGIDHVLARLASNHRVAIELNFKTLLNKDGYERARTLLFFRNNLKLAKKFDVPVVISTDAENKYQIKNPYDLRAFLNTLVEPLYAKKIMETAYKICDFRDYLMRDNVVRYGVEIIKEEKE
Assay: cryo-EM structure; MjaRNase P holoenzyme reconstituted in vitro from RPR and the purified protein components, purified by SEC; alone (4.6 Å) and with E. coli tRNA^Tyr (4.3 Å); buffer exchanged on the grid to 40 mM Hepes, pH 7.5, 200 mM NaCl; C2 symmetry applied; both purified

B1: Methanocaldococcus jannaschii RNase P protein subunit Pop5 (protein, UniProt Q57917 1-134)
chain: MIEMLKTLPPTLREKKRYIAFKILYDEELKEGEVVNLIRKAVLEYYGSWGTSKANPWLVYYDFPYGILRCQRDNVDYVKASLILIREFKEKPVNIICLGVSGTIRKAKIKFLGIKKPKRWFVIRRERLKAKKQK
In the case of B1, the binding is reported as “binds”.
